Results reported in patent publication US6750197B1, “Activators of endothelial nitric oxide synthase” (Rensselaer Polytechnic Institute, priority 1996, dated 2004).
No constants are given. Whether binding was seen depends on the method and setting. Some results given as binding are weak or reduced against the parent protein; the word gives no strength.

Molecular target: T1, recombinant bovine ENOS (purified from overexpressing E. coli) (bovine) (UniProt P29473)
T1 sequence (looked up): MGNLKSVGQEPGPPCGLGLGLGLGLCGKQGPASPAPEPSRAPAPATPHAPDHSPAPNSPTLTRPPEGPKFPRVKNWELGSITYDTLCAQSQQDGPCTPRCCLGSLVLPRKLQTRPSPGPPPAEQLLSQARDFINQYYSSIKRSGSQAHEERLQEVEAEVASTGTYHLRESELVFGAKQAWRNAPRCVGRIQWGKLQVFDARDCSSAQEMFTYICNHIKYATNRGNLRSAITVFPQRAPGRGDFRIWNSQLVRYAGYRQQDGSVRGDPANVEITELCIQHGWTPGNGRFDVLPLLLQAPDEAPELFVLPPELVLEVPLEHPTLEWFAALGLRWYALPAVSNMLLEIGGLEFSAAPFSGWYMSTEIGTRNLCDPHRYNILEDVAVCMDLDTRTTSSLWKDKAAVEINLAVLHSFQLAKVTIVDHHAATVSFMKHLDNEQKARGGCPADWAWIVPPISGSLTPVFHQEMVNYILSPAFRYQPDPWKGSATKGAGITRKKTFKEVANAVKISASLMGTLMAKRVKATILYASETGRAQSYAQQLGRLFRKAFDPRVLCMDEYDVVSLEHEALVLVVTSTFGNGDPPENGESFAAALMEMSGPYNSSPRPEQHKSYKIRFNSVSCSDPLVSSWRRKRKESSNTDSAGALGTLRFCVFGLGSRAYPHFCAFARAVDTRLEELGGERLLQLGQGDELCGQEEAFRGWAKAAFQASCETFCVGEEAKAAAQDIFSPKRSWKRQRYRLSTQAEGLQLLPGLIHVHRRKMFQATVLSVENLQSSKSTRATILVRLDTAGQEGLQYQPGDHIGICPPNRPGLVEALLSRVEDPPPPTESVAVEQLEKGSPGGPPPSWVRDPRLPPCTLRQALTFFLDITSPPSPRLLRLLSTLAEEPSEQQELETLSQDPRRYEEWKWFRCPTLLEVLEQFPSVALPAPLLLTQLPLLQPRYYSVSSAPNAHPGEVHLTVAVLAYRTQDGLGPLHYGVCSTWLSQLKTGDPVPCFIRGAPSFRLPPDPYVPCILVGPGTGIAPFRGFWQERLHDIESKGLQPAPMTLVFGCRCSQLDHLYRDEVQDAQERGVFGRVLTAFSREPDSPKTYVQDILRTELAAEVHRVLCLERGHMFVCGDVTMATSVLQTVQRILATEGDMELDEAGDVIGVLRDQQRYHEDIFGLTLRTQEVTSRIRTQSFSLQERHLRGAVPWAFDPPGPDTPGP
Assay: competition with CAM binding to ENOS

B1: BO58-08 (peptide)
peptide: SSWRRKRKESS
Q: B1 was tested. Which binding did it give?
A: Its binding is “binds”.
